Results are given in words; binding and its absence hold for the method and conditions named. Binding seen in cells or lysates may run through a third protein. Some entries that bind do so weakly or less than the wild type. Sequences can lack the tags named with a protein.
Molecular target: T1, GST-NHR-49 fusion protein (C. elegans) (UniProt O45666)
T1 sequence: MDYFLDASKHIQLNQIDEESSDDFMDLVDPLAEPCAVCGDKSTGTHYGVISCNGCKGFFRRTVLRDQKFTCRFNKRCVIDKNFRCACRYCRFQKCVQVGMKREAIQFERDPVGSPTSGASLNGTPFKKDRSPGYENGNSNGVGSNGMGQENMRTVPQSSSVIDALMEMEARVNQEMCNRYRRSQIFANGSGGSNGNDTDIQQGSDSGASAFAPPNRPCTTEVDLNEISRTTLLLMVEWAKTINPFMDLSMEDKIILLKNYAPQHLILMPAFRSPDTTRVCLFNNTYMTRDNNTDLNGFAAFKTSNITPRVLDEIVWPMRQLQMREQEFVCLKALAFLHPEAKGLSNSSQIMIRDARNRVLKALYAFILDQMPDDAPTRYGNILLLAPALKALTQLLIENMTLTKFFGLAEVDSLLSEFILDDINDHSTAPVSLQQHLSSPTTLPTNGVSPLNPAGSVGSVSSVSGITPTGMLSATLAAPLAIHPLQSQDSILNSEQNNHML
Assay: pull-down; purified GST-NHR-49 on glutathione-Sepharose 4B beads incubated with in vitro translated 35S-methionine-labeled protein for 90 minutes at 37°C, washed in binding buffer; SDS-PAGE and autoradiography; GST alone as control; only the target purified

B1: in vitro translated 35S-methionine-labeled NHR-49 (protein, UniProt O45666 1-501)
chain: T1 sequence
modifications: 35S-methionine labeled
With B1 the binding was “binds”.

B2: in vitro translated 35S-methionine-labeled NHR-66 (protein, UniProt H2KYJ8 1-733)
chain: MPPINEPTATTTSASSVWQGMTQLKSQVDLINIARGILSTPATTSTSCLDIQNSTPIIGSLASGKSQTPILTATMTPQIGLTGLGSLTSLPPELLLQFARLDGFNLLPAVGSPAIPSSSSCSEPSTSQASTVVSAPTLPPPSPLTSLPQKPAPLMPSGHVTTVDQQNRQQHQQQQRQQQQAQQQNSMARKYSMDTIQHHTMQHPHQLQYIPNHFMTASTDVFAAMDMSQKQSSPPGIFKIVAAKNEPSSSSNSQPGTPAMGDRRAVPACAICGTDSTGIHFGVDACAACSAFFRRTVVLNKDYSCNKGGKCTVVKDGSAGQKCRACRFRKCISSGMDKNSVQHRRDAIGKYSAGVKRELSPDAEFEPSAKVSTVSEPSTSSGPSGGFNQNVSSPAGIPRVPSTLRTTQASTCMNSACGQKSVLHELICRQNFLTEQRQLFYAGCLGDWFRKPSSIENQTLSELTDFSSCMFHLWKIEPRLAADFMNRNRYLDPLPIVEKLKIYRNFVIMRQSVEEPYLTWRHGGLEKRWFVMPNNTYIDFNNIAKYFENGALKDLKLDYETTTNLFLPSFTHAMDTIGEKMKKNNITETELTILLGLVLLDPGIYGIHESTRKFLKRIRDQLIHDVYMYYEDEMSHLYDPEIRMADIFMLVAAIKIHSIKTSENMHMLRVFDLIPADACFNQMLDVESVNVSPDGQKDSEAEQGPSPVSVPEAARGSYQDDDMPPVLEKNCDL
modifications: 35S-methionine labeled
With B2 the binding was “binds”.

B3: in vitro translated 35S-methionine-labeled NHR-80 (protein, UniProt Q8ITW8 1-504)
chain: MTAEGRYLEIRKKTVKSKFRFPASSSSTRCLICSAQATGFHFEAQSCSACAAFFRRTVALTKSFKCITGRDDCNVHYSMHQICRSCRHKKCLSNGMKPGGVQPKKPNIETGRAFFTKSGLKRNKKFANVSPQTADEQKLVVEGVKVPKIEVQEPNSLEDLEQDNEFVIKTPTPRKISSSTSFSASTTTNYSTPGPSPMAPCSAGPDVLTLFIREEMKLGERRRLLFSERAVGTLLGQNKHCPYKKEDIKPLVFHDFRLTIKTHIMLVYEWLQTWPELQELDDFDRMSLLRKAVLIHFLLDPSFLSYQIGEPDKLIMQNGGFISTADHHGVGWEDETDISGENKRKYYVPIMKQITDEIMPAMEAMKITFEEFVALKALACFQGGFENVSEAKRHLITQQVNRIMTSLHTHYLENSEEKIAERFGTIVLMLSNIFTAGNDFVQNHREIDIFHIWDLDKLVLQLLNLDKIMETEARETAEKRAMRNGINVVNNNNDVLLGQAKLEK
modifications: 35S-methionine labeled
With B3 the binding was “binds”.

B4: in vitro translated 35S-methionine-labeled NHR-13 (protein, UniProt Q9N4Q7 1-425)
chain: MPTNPNSCEVCSSSSNSSCNHFGARTCKACAAFFRRTVSMKLDYQCIDQPDACRVHCDSRVICRFCRLKKCHDIGMKPLLVKSKNERKNYIRISKGLIRKRSVLGDNVKENSEEIQNDDDPQESDAEMENESTPGPSSEPSENVSAENQETVTKFLKLEASMCDRRRLLYAETPISIVLESGKEWPYENAPLKMFDYKLSQGMSKHDFVMIMDYARGMPGFDEMNYADSVFCYRLVCAVDFVINSAYYTYKRGIEHNELVLSDGTFIPMVPTPLTGYEENANLLFQSQDDLMKFRTLMPLILHQWETCVPFAQLAPSHEEFCLLKAICVWHVSYYRLSEDGRRIAIAQRNRLIRALHHVCHLDSDDVGERFGNVMMALNYIMVNIRHVVSSFVMISFFGIINVDKSMISLTSFWNKSDTSTAPSL
modifications: 35S-methionine labeled
B4 was tested, and the binding was “no binding”.

— publication PMC3325191
